The list shows a part of the results.
molecular target: OsWRKY34 (Oryza sativa, UniProt Q0JBA9 1-250); assay: protein-binding microarray (RPBM); PBS, 2% BSA, 51.3 ng/ul salmon testes DNA, 50 uM zinc acetate, 200 nM TF, 25 C, 1 h; high values mean tight binding; settings: protein: recombinant; tags: N-terminal polyhistidine and DsRed monomer fusion (pET32a); label: CyDye5-dUTP incorporated in the synthesized complementary strand; 3' TTTTT single-stranded linker to array surface; dsDNA, one strand shown
In short: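 The binding signal for each feature is its fluorescence intensity in arbitrary units. An Axon 4000B scanner was used to read a custom Agilent array that had been made double-stranded with Cy5-dUTP primer extension, blocked with 2% BSA, incubated at 25 °C for 1 h with 200 nM protein in PBS, 2% BSA, salmon testes DNA and 50 µM zinc acetate, and washed. The protein was an N-terminal polyhistidine–DsRed transcription factor fusion from E. coli BL21-CodonPlus, purified on Ni–NTA.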

Amino acid sequences for entries named in this document (tags omitted).
UniProt Q0JBA9, entry or part of it: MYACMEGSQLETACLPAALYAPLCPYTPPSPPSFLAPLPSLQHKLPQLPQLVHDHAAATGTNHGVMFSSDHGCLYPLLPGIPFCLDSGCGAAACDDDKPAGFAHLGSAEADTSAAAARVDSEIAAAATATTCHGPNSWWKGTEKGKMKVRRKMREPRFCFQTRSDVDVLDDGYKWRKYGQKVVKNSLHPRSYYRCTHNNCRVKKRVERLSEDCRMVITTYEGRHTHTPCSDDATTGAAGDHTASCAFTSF

Sequence	binding signal
AAGCTTCACTCATATTCACTTTACTCACCACACATCACACCGGAGTCACCTAGTGCAG	9540 fluorescence intensity (a.u.)
GGTTTCAAGGTATTCCACTACTTCCTCTATCCACAATTATCGGAGTCACCTAGTGCAG	8120 fluorescence intensity (a.u.)
TCATGTCTTGTGATCCTTTTCTTTTATATAGCTTTGTCTACGGAGTCACCTAGTGCAG	13000 fluorescence intensity (a.u.)
TTTTATGGTTTATTCTCTTTCTTTTTTGTGAATGGAAAATCGGAGTCACCTAGTGCAG	8530 fluorescence intensity (a.u.)
GATTTAATTATATAGTCCCACATTTCTCTTGGATTGTTTACGGAGTCACCTAGTGCAG	9180 fluorescence intensity (a.u.)
TTGGTTGTGTGTGTGCCGCCGCGAGCCCGTGACGGCGCCCCGGAGTCACCTAGTGCAG	9390 fluorescence intensity (a.u.)
CGTCCGGTCTTACCCTTGCGGTCGTTTTTTCCATAAATTTCGGAGTCACCTAGTGCAG	11700 fluorescence intensity (a.u.)
GCGGTGGAGAGTGGTGGGAGGTTGGGGAGAAGGCGGCGGCCGGAGTCACCTAGTGCAG	14800 fluorescence intensity (a.u.)
TTCGTGGATGGGGTGGGCTCTTTCTCACTGTTATATTGTCCGGAGTCACCTAGTGCAG	27500 fluorescence intensity (a.u.)
AAGCCTTATTCAGTTTGTTTCCACTTTCAACCTTACTAAACGGAGTCACCTAGTGCAG	12400 fluorescence intensity (a.u.)
TCTTTACCTTTCTCTATATTGTTGCCGCCACATTAAATTGCGGAGTCACCTAGTGCAG	8080 fluorescence intensity (a.u.)
TATTTCTTTCTCTTTTGTTTCAACGTACACTCTATACTATCGGAGTCACCTAGTGCAG	10800 fluorescence intensity (a.u.)
GGGGTGGGCGTTCGGTCTGACCGAAAAATTCGGTCTCGGTCGGAGTCACCTAGTGCAG	9440 fluorescence intensity (a.u.)
AATTCCGGCCCAATAGTCACTTGTGTTGGCCACTTCGCCTCGGAGTCACCTAGTGCAG	9010 fluorescence intensity (a.u.)
GCGTCATCCGCGAGTAGTACTTCTCGATCACCTGCCTCGACGGAGTCACCTAGTGCAG	9330 fluorescence intensity (a.u.)
ACAAAAGTTTATCGTAGACGTGCTAGCTTACTCATACGCCCGGAGTCACCTAGTGCAG	9550 fluorescence intensity (a.u.)
GCGCCGCCGTCCACCATGAGCTCCGGCTGCCTCCTCCGCGCGGAGTCACCTAGTGCAG	11800 fluorescence intensity (a.u.)
GGGTTGCAGTTGTTCGTAAGATACACGGTGTTACTTCGCACGGAGTCACCTAGTGCAG	10400 fluorescence intensity (a.u.)
CGATTTCTCTATCCGTTCCTTTTCTTTTTTCTTTTTTTTTCGGAGTCACCTAGTGCAG	14900 fluorescence intensity (a.u.)
CATTGACTCGGGAGCTAGGGTTTCTACGGGTTGTGGGCTACGGAGTCACCTAGTGCAG	8340 fluorescence intensity (a.u.)
TATTACCGTTCTTCCTTTTAGTCACTTTCCAAATTGTAAGCGGAGTCACCTAGTGCAG	8250 fluorescence intensity (a.u.)

Sequence	binding signal
TCCACCCTAAAATTTTTCACCCTATCACATCGAACGTTTGCGGAGTCACCTAGTGCAG	8370 fluorescence intensity (a.u.)
GCCGGCCTGGGAGGCCGAAGGTTGGGGATGACAGGTGGGGCGGAGTCACCTAGTGCAG	8920 fluorescence intensity (a.u.)
CTTTTTTTTGATTTTTTTTATTTGTGGTTTGGATGTTTTTCGGAGTCACCTAGTGCAG	9280 fluorescence intensity (a.u.)
AATTGAGGAGTTTGTTTGTTCATACAGGTAGGTTGTTCCACGGAGTCACCTAGTGCAG	8910 fluorescence intensity (a.u.)
TTGTTTGGGGAGTCCATGGGCGGGGCCATCTACCTTCTCACGGAGTCACCTAGTGCAG	9260 fluorescence intensity (a.u.)
GCTGCTCCTTCACCGGCCTTTTCACTAGGCTTCGCACTTTCGGAGTCACCTAGTGCAG	9540 fluorescence intensity (a.u.)
GACAATTGGTCGGTTGATGTTGGGTTCCTTATTTGTACTACGGAGTCACCTAGTGCAG	9740 fluorescence intensity (a.u.)
TTTCATATAATGGTATCCTTTAACCATTTTCATTTACACACGGAGTCACCTAGTGCAG	8210 fluorescence intensity (a.u.)
TTCTTGGATAGTTAGTTGCTCACCCGATCCTGTATCCATGCGGAGTCACCTAGTGCAG	9620 fluorescence intensity (a.u.)
CTGACTGACAGATCTCCCAGGCCGGTGTGTTCGATTTTTTCGGAGTCACCTAGTGCAG	8820 fluorescence intensity (a.u.)
GGGTGGGCGTGATGGAGTTGGGTCGGCCGGGGTGTCCGGTCGGAGTCACCTAGTGCAG	14500 fluorescence intensity (a.u.)
CAGAACAAATGTGGTGGTTGTTTGCTCCGTCTACAAGCTCCGGAGTCACCTAGTGCAG	8100 fluorescence intensity (a.u.)
GATTTTGCTGTTCTTGCTATCTTCCCTGCTCTGCTCATCTCGGAGTCACCTAGTGCAG	11400 fluorescence intensity (a.u.)
CCTTTTGCACACACACACACACACAAAACTTTATCTTTCTCGGAGTCACCTAGTGCAG	8690 fluorescence intensity (a.u.)
CTCCTACTTTGCTTTTCTGCTGCACGCGTCGACCCTTTCTCGGAGTCACCTAGTGCAG	12400 fluorescence intensity (a.u.)
CTACATCCTCTTTCATGAACTCTCGGTACAGAATTAGTTACGGAGTCACCTAGTGCAG	8240 fluorescence intensity (a.u.)
CTACCTCTCCACTGCTCTGCTCATTTGCTTGGCTTTTGGCCGGAGTCACCTAGTGCAG	8720 fluorescence intensity (a.u.)
ATCCATCGCCGTCCTCTGCTGAAAATGCTACACTTGTCCCCGGAGTCACCTAGTGCAG	8890 fluorescence intensity (a.u.)
CGACCCAAACTTGCACACCTACTTCGCTAGCCTCGCCGCGCGGAGTCACCTAGTGCAG	9500 fluorescence intensity (a.u.)
CCATCCGCTCCACTTCGTTCAGTTCCCTGGGCTTCGGCTGCGGAGTCACCTAGTGCAG	8280 fluorescence intensity (a.u.)
GGGGATTTTTGTACGCTCACGGCATTTTTTTTGTCAGCGACGGAGTCACCTAGTGCAG	17500 fluorescence intensity (a.u.)

Sequence	binding signal
CTAGTGTAATAAAATGTGGCCGTCTGTACTCAAAATTTTCCGGAGTCACCTAGTGCAG	9030 fluorescence intensity (a.u.)
ACAGCAAATGTAGTTACAACCCAGTCCAATCTAAGGTCGTCGGAGTCACCTAGTGCAG	8250 fluorescence intensity (a.u.)
GAGTCCACTCCACCTCCATCCAGATCAGTGTATATAAACCCGGAGTCACCTAGTGCAG	9760 fluorescence intensity (a.u.)
GGTATCTATTTCACTTCCTTTCTCTACTCCCATTGTTAACCGGAGTCACCTAGTGCAG	12500 fluorescence intensity (a.u.)
ATAAGGTCATTGGTTATGCTTCCAGCCCTGATGTTGTGGCCGGAGTCACCTAGTGCAG	9650 fluorescence intensity (a.u.)
CTCGTGTTTTTTTGCCCATAATTGACCACAGAACTCTTGACGGAGTCACCTAGTGCAG	8080 fluorescence intensity (a.u.)
TCCTACCAATGCAAGCGAACACCACATCCACACGTCGCCACGGAGTCACCTAGTGCAG	9800 fluorescence intensity (a.u.)
GTCACATTGAATACCTGCCGTGATGCTGCCTTTGTTGCATCGGAGTCACCTAGTGCAG	10200 fluorescence intensity (a.u.)
GCTCCGTCCCCACATGAACCTCCGCCAACTTGCCACGAAACGGAGTCACCTAGTGCAG	10200 fluorescence intensity (a.u.)
TCGTTAACTTTTTAATAAACGTTTGACCTTTCGTCTTATTCGGAGTCACCTAGTGCAG	10200 fluorescence intensity (a.u.)
AAGTCATCGAACTCACAAACGGGCCGTCCCGTCCTGTATCCGGAGTCACCTAGTGCAG	8700 fluorescence intensity (a.u.)
TTGTTTCTGCAGACATGTGTAGCCATCAATCGATTCTTTGCGGAGTCACCTAGTGCAG	8210 fluorescence intensity (a.u.)
CATCTTACTTTGGTTTTGCATTACGTTTTTACCCTTGGCTCGGAGTCACCTAGTGCAG	11400 fluorescence intensity (a.u.)
ACTTGGAAACTGAGGCCTCTGCTAGTGCTTTCATTTTTTTCGGAGTCACCTAGTGCAG	8110 fluorescence intensity (a.u.)
ACACCCCTCGCCCGTCGCTGTGCTGTCCATATATACGGAACGGAGTCACCTAGTGCAG	9680 fluorescence intensity (a.u.)
CTTTGCTCGTGCTTTGCTTTGCTTGTTGCTCTCCTCGCGTCGGAGTCACCTAGTGCAG	8870 fluorescence intensity (a.u.)
GTTCCTTTCAGAAACTGGCATTCGAGTTTTGAGTTTCTCGCGGAGTCACCTAGTGCAG	8720 fluorescence intensity (a.u.)
GCTGCTGCTGCTACTTTTCAGCGTTTATCATTCTGTTTGTCGGAGTCACCTAGTGCAG	10500 fluorescence intensity (a.u.)
CGTTTTTGTGCATCACAATATCACATCACTCTTCATGTACCGGAGTCACCTAGTGCAG	11000 fluorescence intensity (a.u.)
TCGATCCTCGTCGCCGGCCGCCGCCGCTACCCCATTCCGACGGAGTCACCTAGTGCAG	9150 fluorescence intensity (a.u.)
CATATTTTGTCATTTTTCCTTGGCAACTGTAACTCATTTACGGAGTCACCTAGTGCAG	10400 fluorescence intensity (a.u.)

Retrieved one by one from the list above (two):
Sequence	binding signal
ATAAGGTCATTGGTTATGCTTCCAGCCCTGATGTTGTGGCCGGAGTCACCTAGTGCAG	9650 fluorescence intensity (a.u.)
AAGTCATCGAACTCACAAACGGGCCGTCCCGTCCTGTATCCGGAGTCACCTAGTGCAG	8700 fluorescence intensity (a.u.)

(listing goes on)

Sequence	binding signal
CCAACACTATACCACCACCAGTATCATTGTACTACTACCCCGGAGTCACCTAGTGCAG	8950 fluorescence intensity (a.u.)
CTTTTAAGCCTAATTGCGCCATGATTTGACAATGTGTTGCCGGAGTCACCTAGTGCAG	8530 fluorescence intensity (a.u.)
TTCACGACTTATTTGCATCTCTAACAAACTCCTGCTAGACCGGAGTCACCTAGTGCAG	9590 fluorescence intensity (a.u.)
CCTTTTGGACGTACGTCGATAGTTGGGTAAATATGAAAAACGGAGTCACCTAGTGCAG	11400 fluorescence intensity (a.u.)
CCTCACATCTTCTTCTTCATCTCCCTGTCTCTGTCTCTGTCGGAGTCACCTAGTGCAG	13500 fluorescence intensity (a.u.)
GTTTTTTTGTTTTTCACTGTAACTTTATTCAACGGAATACCGGAGTCACCTAGTGCAG	8450 fluorescence intensity (a.u.)
TTTCTACTATAGTTCTTAGGTGTTCTTAGACTTACTTCCTCGGAGTCACCTAGTGCAG	9500 fluorescence intensity (a.u.)
AATCCCACAGGCAACAGCCCACCATCAAGTTCTGCTTTTCCGGAGTCACCTAGTGCAG	15500 fluorescence intensity (a.u.)
CTCTTTTAACATTTTTTCTAACTTAATCCATTTTCTTTTCCGGAGTCACCTAGTGCAG	8120 fluorescence intensity (a.u.)
CCCTTCGTCGACACGCACCCCTGACCTCATATTTTCGCTTCGGAGTCACCTAGTGCAG	11800 fluorescence intensity (a.u.)
CATAAACTTTTAACTTTTCCATCACATCGTTCCAATTTCACGGAGTCACCTAGTGCAG	8210 fluorescence intensity (a.u.)
GTAAACTTATTCTTTGGGCGTTGTTATTATTTGGGGCAATCGGAGTCACCTAGTGCAG	11400 fluorescence intensity (a.u.)
TTTTGACTCATTTTTGGTCCTTTTATGTATGTCGTTTTCGCGGAGTCACCTAGTGCAG	10600 fluorescence intensity (a.u.)
GGCGGCGGCGGCGGCGGAGGTTGGGAAGGAGAGGGAGGGGCGGAGTCACCTAGTGCAG	11800 fluorescence intensity (a.u.)
ATGTATCTGCTGACCGAGAACCCTTGGGCATGCCGTCAAACGGAGTCACCTAGTGCAG	8240 fluorescence intensity (a.u.)
ACAGTGCGGCAATTCAATCATTTATATTTTTTTATTCTCGCGGAGTCACCTAGTGCAG	9150 fluorescence intensity (a.u.)
TCTAGTTGTATTCTAAAGCTTTACTTAAGTATTCTCCTTTCGGAGTCACCTAGTGCAG	9980 fluorescence intensity (a.u.)
ATGAGATCATCTCAGCCCACCTGTTGCGTGCTACCAGTTCCGGAGTCACCTAGTGCAG	8760 fluorescence intensity (a.u.)
CAACCAACCACCCTCAACCTCTCCTCTCTGCTCCGCTCCGCGGAGTCACCTAGTGCAG	8880 fluorescence intensity (a.u.)
ACACATATTTATTTTCTCCACTACCACAGAAGGAACTTTTCGGAGTCACCTAGTGCAG	9140 fluorescence intensity (a.u.)
TACTAGCTTGCACATACACTCCATTTCTTCTACCCCTATACGGAGTCACCTAGTGCAG	9150 fluorescence intensity (a.u.)

Taken from above for reference:
Sequence	binding signal
GCCGGCCTGGGAGGCCGAAGGTTGGGGATGACAGGTGGGGCGGAGTCACCTAGTGCAG	8920 fluorescence intensity (a.u.)
CTTTTTTTTGATTTTTTTTATTTGTGGTTTGGATGTTTTTCGGAGTCACCTAGTGCAG	9280 fluorescence intensity (a.u.)
AATTGAGGAGTTTGTTTGTTCATACAGGTAGGTTGTTCCACGGAGTCACCTAGTGCAG	8910 fluorescence intensity (a.u.)
TTGTTTGGGGAGTCCATGGGCGGGGCCATCTACCTTCTCACGGAGTCACCTAGTGCAG	9260 fluorescence intensity (a.u.)
